Experimental data from PubChem BioAssay (Tox21).
Inconclusive means that the source gave no clear call. Such entries were picked first, then a sample of the others. A potency beside an inconclusive call is a rough fit, not a confirmed value. Active and inactive are the calls of the source. Calls follow the shape of the full dose curve.

assay: p53 small molecule agonists, cell-based qHTS assay with rat liver microsomes: qHTS cell viability counter screen (AID 1963580); settings: p53RE-bla HCT-116 + rat microsomes, ATP viability, 16 h; series mostly up to 66 µM; also: nearly all actives have a fitted effect of over 45% in size
Outline: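 Counter screen for cytotoxicity under metabolic activation: rat liver microsomes and NADPH, 0.5 mg/mL final each, added with compounds to p53RE-bla HCT-116 cells; 16 h at 37 C, then ATP luminescence read.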
Potency is read from the fitted curve at half-maximal effect.

Row | Compound | Potency
1 | O=S(=O)(O)c1ccc(Nc2nc(Nc3ccc(/C=C/c4ccc(Nc5nc(Nc6ccc(S(=O)(=O)O)cc6)nc(N(CCO)CCO)n5)cc4S(=O)(=O)O)c(S(=O)(=O)O)c3)nc(N(CCO)CCO)n2)cc1 | inconclusive: 11 µM [rising, single point]
2 | OC[C@@H](O)[C@H](O)[C@@H](O)[C@@H](O)CO | inconclusive: 20.4 µM [rising, single point]
3 | CCc1c2c(nc3ccc(OC(=O)N4CCC(N5CCCCC5)CC4)cc13)-c1cc3c(c(=O)n1C2)COC(=O)[C@]3(O)CC | active: 1.26 µM
4 | CC(=O)c1ccc2c(c1)N(CCCN(C)C)c1ccccc1S2 | inconclusive: 0.793 µM [cytotoxic, single point]
5 | CCN(CC)c1ccc2c(C)cc(=O)oc2c1 | inconclusive: 1.84 µM [cytotoxic, single point]
